From PMC5869712 (Scientific Reports, 2018) come the findings set out here.

Molecules are shown by their SMILES.

As usually defined, the IC50 is the concentration at which inhibition is half-maximal.

For the test, the system named is IL-6-induced STAT3 phosphorylation (JAK1). The test can be described thus: IL-6-induced pSTAT3 in total lymphocytes in hPBMCs, flow cytometry. Particulars: Homo sapiens, Lymphocyte. It is filed as cell-based.

On to `C[C@@H]1CCN(C(=O)CC#N)C[C@@H]1N(C)c1ncnc2[nH]ccc12` [Tofacitinib, reference compound], for which the midpoint of inhibition, the IC50, lay at 73 nM.
